From article PMC2951368
These are yes or no findings as the source states them, for the method shown. In cells and extracts the contact can be indirect. Some entries that bind do so weakly or less than the wild type. Sequences can lack the tags named with a protein.

Columns and labels:
[1] = target: T1, FLAG-SR-BI (full-length human SR-BI with N-terminal FLAG tag) (human) (UniProt Q8WTV0); experiment: co-IP; Huh-7 cells co-transfected; immunoprecipitation of FLAG-tagged protein with anti-FLAG; blot for co-immunoprecipitated Myc-tagged protein
T1 sequence: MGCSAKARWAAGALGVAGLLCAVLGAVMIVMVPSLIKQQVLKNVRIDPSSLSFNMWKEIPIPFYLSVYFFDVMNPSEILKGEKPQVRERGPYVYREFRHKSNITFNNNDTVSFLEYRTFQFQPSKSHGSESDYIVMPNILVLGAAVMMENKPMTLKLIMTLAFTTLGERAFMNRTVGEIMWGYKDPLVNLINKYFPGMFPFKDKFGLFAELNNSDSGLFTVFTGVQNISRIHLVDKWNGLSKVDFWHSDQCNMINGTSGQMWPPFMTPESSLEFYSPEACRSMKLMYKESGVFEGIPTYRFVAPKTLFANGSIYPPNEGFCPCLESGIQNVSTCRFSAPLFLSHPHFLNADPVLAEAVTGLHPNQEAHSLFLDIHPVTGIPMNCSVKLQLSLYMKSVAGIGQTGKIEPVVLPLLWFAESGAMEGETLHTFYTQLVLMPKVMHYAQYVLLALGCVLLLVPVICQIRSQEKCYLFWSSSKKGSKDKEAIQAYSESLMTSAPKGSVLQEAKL

[2] = target: T1, FLAG-SR-BI (full-length human SR-BI with N-terminal FLAG tag) (human); experiment: co-IP; 293T cells co-transfected; lysis in NP-40 buffer (1% NP-40, 150 mM NaCl, 50 mM Tris pH 8.0); immunoprecipitation of FLAG-tagged protein with anti-FLAG mAb and protein A/G agarose at 4°C; blot with anti-Myc or anti-GFP
[3] = target: T2, FLAG-SR-BIΔ509 (SR-BI lacking the final carboxy-terminal residue, N-terminal FLAG tag) (human) (UniProt Q8WTV0); experiment: as above
T2 sequence: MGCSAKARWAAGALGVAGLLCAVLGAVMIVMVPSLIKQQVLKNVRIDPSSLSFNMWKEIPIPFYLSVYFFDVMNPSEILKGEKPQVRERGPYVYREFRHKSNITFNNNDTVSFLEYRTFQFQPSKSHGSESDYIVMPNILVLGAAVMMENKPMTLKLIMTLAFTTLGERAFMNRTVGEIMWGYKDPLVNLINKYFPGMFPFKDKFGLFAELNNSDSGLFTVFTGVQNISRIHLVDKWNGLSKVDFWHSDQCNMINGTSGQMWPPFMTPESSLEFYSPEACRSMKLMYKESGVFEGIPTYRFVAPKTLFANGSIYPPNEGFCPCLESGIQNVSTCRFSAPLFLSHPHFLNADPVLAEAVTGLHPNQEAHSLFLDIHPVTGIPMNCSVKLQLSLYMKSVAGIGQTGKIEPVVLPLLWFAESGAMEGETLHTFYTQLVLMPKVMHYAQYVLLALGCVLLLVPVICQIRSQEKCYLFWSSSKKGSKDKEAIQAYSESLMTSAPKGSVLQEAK

Measured: binding

B1: mycSR-BIΔ509 (SR-BI lacking the final carboxy-terminal residue, N-terminal Myc tag) (receptor, UniProt Q8WTV0-2 1-508)
chain: T2 sequence
binds: [1] | [2] | [3]
